Among the data in the supplement of paper PMC8256030 are percent viability values, retold here.

The structures appear in SMILES notation. Several values for one entry are separate records, joined by “and”; a condition that tells them apart may be missing. Equal entries are not always repeated. Structures can show the parent of a compound that is named as a salt. The list shows a part of the results. Single values are uncertain here, since repeats match poorly.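 HEK293T cells were given each compound shortly before transfection with a reporter in which red mCherry is followed by the SARS-CoV-2 frameshift element and then GFP in the −1 frame, so GFP appears only after frameshifting.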

This experiment has as its system HEK293T. Description: percent viability (nuclei count) relative to control; higher = more viable cells. The conditions noted are these: 10 µM; 24 h.
Take `CCC(=O)NC[C@@H]1C[C@H]1c1cccc2c1CCO2` [Tasimelteon]: the percent viability worked out at 297%. As for `CC(C)(C)N1CCC(c2ccccc2)(c2ccccc2)CC1` [budipine], the percent viability worked out at 158%. As for `NC(=O)N/N=C/c1ccc([N+](=O)[O-])o1`, the percent viability came to 98.5%. In the case of `OC(CCN1CCCCC1)(c1ccccc1)C1CC2C=CC1C2` (stereo not given) [biperiden], the percent viability came to 403%. The figure for `Nc1ccc(S(=O)(=O)Nc2ncccn2)cc1` [sulfadiazine] is 171% and 169%; for `CC(C)(C)C(=O)NCCCC(=O)O` [pivagabine] it is 230%; for `CC(=O)O[C@]1(C(C)=O)CC[C@H]2[C@@H]3C[C@H](C)C4=CC(=O)CC[C@]4(C)[C@H]3CC[C@@]21C` it is 164%. The figure for `CCCCC(C)(O)C/C=C/[C@H]1[C@H](O)CC(=O)[C@@H]1CCCCCCC(=O)OC` (mixture of isomers) [Misoprostol] is 206%; for `CC1CS(=O)(=O)CCN1/N=C/c1ccc([N+](=O)[O-])o1` (stereo not given) [nifurtimox] it is 140%; for `CCOc1ccc(/C=C2\NCCc3cc(OCC)c(OCC)cc32)cc1OCC` [Drotin] it is 135%. The figure for `NCC(=O)CCC(=O)O` is 334%; for `CN(C(=O)CCCOc1ccc2[nH]c(=O)ccc2c1)C1CCCCC1` [cilostamide] it is 181%; for `NC(N)=O` it is 152%. As for `CCOc1ccc(/N=C(\C)Nc2ccc(OCC)cc2)cc1` [phenacaine], the percent viability was 115%. Regarding `NC(=O)c1ncn([C@@H]2O[C@H](CO)[C@@H](O)[C@H]2O)c1O` [mizoribine], the percent viability came to 170%. Turning to `O=c1[nH]c2ccccc2c(=O)n1CCCN1CCN(c2cccc(Cl)c2)CC1` [cloperidone], the percent viability worked out at 324%. Consider `Cc1c(Nc2ncccc2C(=O)O)cccc1C(F)(F)F` [flunixin], for which the percent viability was determined as 91.5%. Next, `C=C1c2cccc(O)c2C(O)=C2C(=O)[C@]3(O)C(O)=C(C(N)=O)C(=O)[C@@H](N(C)C)[C@@H]3[C@@H](O)[C@H]12` [metacycline]: 124%; `Cc1cc2c(s1)Nc1ccccc1N=C2N1CCN(C)CC1`: 282%; `O=C(O)c1cc(O)c2c3nc4ccccc4oc-3cc(=O)c2n1` [pirenoxine]: 243%.

On to `CC(CC(=O)c1ccc(-c2ccccc2)cc1)C(=O)O` (stereo not given) [metbufen], for which the percent viability came to 118%. The figure for `CC(C)(C)NC[C@H](O)COc1cccc2c1CCCC2=O` [levobunolol] is 261% and 95.4%; for `COc1c(O[C@@H]2O[C@H](CO)[C@@H](O)[C@H](O)[C@H]2O)cc2c(c1OC)-c1ccc(SC)c(=O)cc1[C@@H](NC(C)=O)CC2` [thiocolchicoside] it is 56.6%. `COc1cccc2c1C(=O)c1c(O)c3c(c(O)c1C2=O)C[C@@](O)(C(=O)CO)C[C@@H]3O[C@H]1C[C@H](N)[C@H](O)[C@H](C)O1` [Doxorubicin·HCl]: the percent viability was 6.15%.

Turning to `CC(C[N+](C)(C)C)OC(N)=O` (stereo not drawn) [Carbamyl-beta-methylcholine], the percent viability worked out at 283%.

On to `C[C@@H]1CN(c2c(F)c(N)c3c(=O)c(C(=O)O)cn(C4CC4)c3c2F)C[C@H](C)N1` [sparfloxacin], for which the percent viability was 174% and 153%. For `Cn1nc(-c2cccc(F)c2)n(C)c1=S` [suritozole], the percent viability came to 290%. Next, `CCN(CC)C(=O)/C(C#N)=C/c1cc(O)c(O)c([N+](=O)[O-])c1` [entacapone]: 141% and 295% and 205%; `NC(=O)C1c2ccccc2CCc2ccccc21` [cyheptamide]: 176%. As for `O=C(CNC(=O)c1ccc(Cl)cc1)NO` [benurestat], the percent viability is 319%. The figure for `CC(N/C(=N\C#N)Nc1ccncc1)C(C)(C)C` (stereo not given) [Pinacidil] is 332%; for `CC(=O)/N=c1/sc(S(N)(=O)=O)nn1C` [methazolamide] it is 139%. Next, `COc1cc(NCCCC(C)N)c2ncccc2c1` (stereo not given) [quinocide]: 145%; `Nc1ccc(C(=O)NCC(=O)O)cc1`: 384%; `CC1=NS(=O)(=O)c2cc(Cl)ccc2N1`: 137%. The figure for `COc1cc2c(cc1OC)[C@@H](Cc1cc(OC)c(OC)c(OC)c1)[N+](C)(CCCOC(=O)CC/C=C/CCC(=O)OCCC[N+]1(C)CCc3cc(OC)c(OC)cc3[C@H]1Cc1cc(OC)c(OC)c(OC)c1)CC2` (stereo not given in full) [Mivacron] is 241%.

Consider `CC(C)(C)C1CCC(CC2=C(O)c3ccccc3C(=O)C2=O)CC1` (stereo not given) [buparvaquone], for which the percent viability was determined as 126%. With `O=C(CCCc1ccccc1)OCC(COC(=O)CCCc1ccccc1)OC(=O)CCCc1ccccc1` [glycerol phenylbutyrate], the percent viability is 326%. The figure for `COc1ccc(C(=O)c2ccccc2O)c(O)c1` [dioxybenzone] is 187%. With `COc1c2occc2c(OC)c2c(=O)cc(C)oc12` [khellin], the percent viability came out at 270%.
